Assay results as given in PMC7819943, “Rice protein-binding microarrays: a tool to detect cis-acting elements near promoter regions in rice”.
This is one part of the list.

What follows are sequences tested against T1, OsSMF1 (Oryza sativa, UniProt Q6ZLB0 1-436) (assay: protein-binding microarray (RPBM); PBS, 2% BSA, 51.3 ng/ul salmon testes DNA, 50 uM zinc acetate, 200 nM TF, 25 C, 1 h; high values mean tight binding). Conditions: protein: recombinant; tags: N-terminal polyhistidine and DsRed monomer fusion (pET32a); chain copies: 2; label: CyDye5-dUTP incorporated in the synthesized complementary strand; 3' TTTTT single-stranded linker to array surface; dsDNA, one strand shown.
T1 sequence: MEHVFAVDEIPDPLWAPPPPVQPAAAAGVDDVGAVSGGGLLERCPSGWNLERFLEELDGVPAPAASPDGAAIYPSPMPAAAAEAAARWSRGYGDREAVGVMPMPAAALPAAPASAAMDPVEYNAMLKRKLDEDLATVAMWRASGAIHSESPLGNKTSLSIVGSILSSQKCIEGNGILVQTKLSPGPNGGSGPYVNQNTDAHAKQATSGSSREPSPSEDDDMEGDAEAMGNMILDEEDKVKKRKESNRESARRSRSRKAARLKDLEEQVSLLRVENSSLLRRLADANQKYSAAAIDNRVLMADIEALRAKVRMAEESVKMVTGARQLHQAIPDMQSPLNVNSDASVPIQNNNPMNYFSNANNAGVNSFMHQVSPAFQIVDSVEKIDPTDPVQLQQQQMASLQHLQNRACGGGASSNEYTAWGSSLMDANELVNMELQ
Outline: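 Using Ni–NTA, transcription factors fused N-terminally to polyhistidine and DsRed were purified after expression in E. coli BL21-CodonPlus. These were incubated at 200 nM with a blocked, double-stranded custom Agilent array for 1 h at 25 °C in a buffer containing 50 µM zinc acetate, and the array was washed. The binding signal is per-feature fluorescence intensity (arbitrary units) on an Axon 4000B scanner.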

| Sequence | binding signal |
| --- | --- |
| CGCAACCACTCCACGCACTAGCCAAATCAATCGATTCATCCGGAGTCACCTAGTGCAG | 3250 fluorescence intensity (a.u.) |
| TTACCAGTGGTGATTAATGATTTGTCACTAGGCCTACATGCGGAGTCACCTAGTGCAG | 4070 fluorescence intensity (a.u.) |
| CACACCCATCATAGTTTACGATGCCGGAGTACGCGGAGCCCGGAGTCACCTAGTGCAG | 3590 fluorescence intensity (a.u.) |
| TTTGCCTACTGCTCTCTGTGTCAGATATCCACACGTGCCCCGGAGTCACCTAGTGCAG | 4580 fluorescence intensity (a.u.) |
| GCGGGTTGAGGGCGCGCGGGAGGAGCGACGTCAGGGTGCTCGGAGTCACCTAGTGCAG | 3990 fluorescence intensity (a.u.) |
| CCCCTCGTCTACCCACCCACTGCCACGTGGGACCAGCCACCGGAGTCACCTAGTGCAG | 18400 fluorescence intensity (a.u.) |
| GTCTCCCTTGATCCAGTAAACAGACGACACGCGGACGATCCGGAGTCACCTAGTGCAG | 3260 fluorescence intensity (a.u.) |
| AGGGGTGCGTAGAGAACACGCGTCCGTACGTGGTGGCGTACGGAGTCACCTAGTGCAG | 4270 fluorescence intensity (a.u.) |
| AAGATAAGTTCGCCGCCGCCTCGTCGGCACGCAACAAGACCGGAGTCACCTAGTGCAG | 3390 fluorescence intensity (a.u.) |
| TGTTTATAGCGGGCTTATAGTCTCTCATTGTACTTGCTCTCGGAGTCACCTAGTGCAG | 3300 fluorescence intensity (a.u.) |
| GGGTTCGATTCCCCGCACCTCCAATATAAAACGTTTTCTTCGGAGTCACCTAGTGCAG | 3420 fluorescence intensity (a.u.) |
| CATTAGCACGCTTTTCAAAGTACAAAATGACGTGTTTTGTCGGAGTCACCTAGTGCAG | 9620 fluorescence intensity (a.u.) |
| CAGCGCTATCTCCCTCCTGCTGCATTAACTCTTCAGTAATCGGAGTCACCTAGTGCAG | 3340 fluorescence intensity (a.u.) |
| GATTGTTGGCGGTTCTTGATTGTCATCATCATGTTGTCAGCGGAGTCACCTAGTGCAG | 5680 fluorescence intensity (a.u.) |
| AGTTTTGCAGAGTAGCAGCGTGATGCAGAGGTTTCTACCACGGAGTCACCTAGTGCAG | 3310 fluorescence intensity (a.u.) |
| TCCGCTCCTCCGCTGCTTGGTCACCGACCCCTCGGAACGCCGGAGTCACCTAGTGCAG | 5280 fluorescence intensity (a.u.) |
| CCCACCTGTAAGTGACGTTACGCGTGTGGTGATTGGCTGGCGGAGTCACCTAGTGCAG | 4410 fluorescence intensity (a.u.) |
| TTCTGCGTGTGAGTGGGTTTTCTTCCTAGTGGTTTAAATACGGAGTCACCTAGTGCAG | 3970 fluorescence intensity (a.u.) |
| GCACGATCTATCACAAAACTACAGATTTAAGAACTTATTTCGGAGTCACCTAGTGCAG | 3520 fluorescence intensity (a.u.) |
| GGGTTGGATATACGGGTCGGTGACGGAGGACGTGGTCACCCGGAGTCACCTAGTGCAG | 6140 fluorescence intensity (a.u.) |
| CCGTTGAATGTGCCAGACAAACTGAGTGTAATTTAATATTCGGAGTCACCTAGTGCAG | 65100 fluorescence intensity (a.u.) |
| CTCAGCCTCCCCACCCACGCGTCTCACCGGAGCTCCGCCGCGGAGTCACCTAGTGCAG | 4390 fluorescence intensity (a.u.) |
| GCCTGGTAATACGTACTACGCGGGAACCAAATCTTACGCACGGAGTCACCTAGTGCAG | 3310 fluorescence intensity (a.u.) |
| ACAGCGACCCGATCACTCTCTCACTGTCTCGTTCACGTAGCGGAGTCACCTAGTGCAG | 4210 fluorescence intensity (a.u.) |
| AGGAGAAACCGATGGCTCTTCCGCGTGTCACGCGTGACGCCGGAGTCACCTAGTGCAG | 4250 fluorescence intensity (a.u.) |
| TCCCGCTCGCCACCACCTCCTCCTCGAACCCCTCCGGCAACGGAGTCACCTAGTGCAG | 3230 fluorescence intensity (a.u.) |
| AACGCTACCTAGATGCTTCGCTGCTATGAGTCATATATAGCGGAGTCACCTAGTGCAG | 5200 fluorescence intensity (a.u.) |

| Sequence | binding signal |
| --- | --- |
| ACCTCTTTGTGAGGTGTCCTCTGACGTGTAGTCCAACATACGGAGTCACCTAGTGCAG | 7630 fluorescence intensity (a.u.) |
| CATGCACTTGTGTGCCACGTGTATGCGCTGAGGTAAAGTTCGGAGTCACCTAGTGCAG | 21200 fluorescence intensity (a.u.) |
| CAACATGCAACCATACCACATCATCACCCACTAGCAATAACGGAGTCACCTAGTGCAG | 4890 fluorescence intensity (a.u.) |
| TATGGTGATCCTAGCGATGAAACCGCCTAGCCCCGTTAGGCGGAGTCACCTAGTGCAG | 64600 fluorescence intensity (a.u.) |
| AATTAATGAAGTGGAGTGCCTTGGCAATCTGTGAGGTACACGGAGTCACCTAGTGCAG | 3380 fluorescence intensity (a.u.) |
| CACAACCTCCCGTCTCAGTGACGTCGCGCCCGTAGTCCCGCGGAGTCACCTAGTGCAG | 4670 fluorescence intensity (a.u.) |
| CAACCCGGCTGGAACCAGTCATCAGTCCATCACGATATACCGGAGTCACCTAGTGCAG | 3260 fluorescence intensity (a.u.) |
| TCACACATATCACGCATATCATACGTCACTGTTGGAGATTCGGAGTCACCTAGTGCAG | 8360 fluorescence intensity (a.u.) |
| CTTGTTCGTAAAAGTTTTATAATTTTACACGTATATCCTTCGGAGTCACCTAGTGCAG | 5220 fluorescence intensity (a.u.) |
| TGAAATTTATTAATCAATGAACTAAATTACTCCCTCGAGTCGGAGTCACCTAGTGCAG | 20300 fluorescence intensity (a.u.) |
| ATGCTATCTGAGGACATTCCAATACAGCTCTTCAACTGCACGGAGTCACCTAGTGCAG | 28100 fluorescence intensity (a.u.) |
| GAGGAAGGAGGAACAAGGAGGAACTCTACACGTCATGGTGCGGAGTCACCTAGTGCAG | 8720 fluorescence intensity (a.u.) |
| CGTGCAAGATGTGCGCCTTATATCATCAGCTTGCTTTCCTCGGAGTCACCTAGTGCAG | 3810 fluorescence intensity (a.u.) |
| GTGGGCCCCACATGTCAGTGGGTCCCACCCGTACTTTTGGCGGAGTCACCTAGTGCAG | 3780 fluorescence intensity (a.u.) |
| CGGATACCCGGACCCGATGGGCACGGGCGTGGGTGTGACTCGGAGTCACCTAGTGCAG | 3200 fluorescence intensity (a.u.) |
| AATCTTTTGAGCCTAATTACGTCATGATTTGACAATGTGACGGAGTCACCTAGTGCAG | 4250 fluorescence intensity (a.u.) |
| AACCCTTGCCGTCGCGGTCGTGTGATCGTGTCGTGCGCTGCGGAGTCACCTAGTGCAG | 3720 fluorescence intensity (a.u.) |
| ATCTTGTTAGTAGATGATGATGTGGCATCTTTGCATGTCACGGAGTCACCTAGTGCAG | 18200 fluorescence intensity (a.u.) |
| ATCATGAATTACATCAGAGATCAGTGACACGCCATGGCAGCGGAGTCACCTAGTGCAG | 5380 fluorescence intensity (a.u.) |
| CAATATGCCACTCCTATGGAGTGGCTTTAACAGGATGCCACGGAGTCACCTAGTGCAG | 3340 fluorescence intensity (a.u.) |
| TTTCTCCAAGAACATCTGATCAAGAATCCGCATGGCTGAACGGAGTCACCTAGTGCAG | 3210 fluorescence intensity (a.u.) |
| TCATGGGGAGTGGTTGAACTGTTTACGCACGTACACTCTGCGGAGTCACCTAGTGCAG | 3370 fluorescence intensity (a.u.) |
| AGGAAGGGGTGCAAAGCTGAGGTAGGAATCGGGGATGAGCCGGAGTCACCTAGTGCAG | 3760 fluorescence intensity (a.u.) |
| TGTTGTGTTGTTGTCCTCAATTAGTCACCAATCAACTATTCGGAGTCACCTAGTGCAG | 3990 fluorescence intensity (a.u.) |
| CTTGCATGCAACGTTACACGTAGCACACTGGACACCGGAGCGGAGTCACCTAGTGCAG | 5610 fluorescence intensity (a.u.) |
| TTACCTCATCCGGTTTAATATATGACGTTTAGACATGCGTCGGAGTCACCTAGTGCAG | 3540 fluorescence intensity (a.u.) |
| CGCGCCACGTGTCTGTCCTCTCCCTGGCAAATGGCAATCCCGGAGTCACCTAGTGCAG | 21500 fluorescence intensity (a.u.) |

Two entries from above, with tabs:
Sequence	binding signal
AATTAATGAAGTGGAGTGCCTTGGCAATCTGTGAGGTACACGGAGTCACCTAGTGCAG	3380 fluorescence intensity (a.u.)
AACCCTTGCCGTCGCGGTCGTGTGATCGTGTCGTGCGCTGCGGAGTCACCTAGTGCAG	3720 fluorescence intensity (a.u.)
